From publication PMC7556403
The exact form of at least one protein or probe is not confirmed. For some assays here: At least one verdict was read from the data and is not stated in words by the source.

Amino acid sequences for entries named in this document (tags omitted).
UniProt P41238, whole entry W121H: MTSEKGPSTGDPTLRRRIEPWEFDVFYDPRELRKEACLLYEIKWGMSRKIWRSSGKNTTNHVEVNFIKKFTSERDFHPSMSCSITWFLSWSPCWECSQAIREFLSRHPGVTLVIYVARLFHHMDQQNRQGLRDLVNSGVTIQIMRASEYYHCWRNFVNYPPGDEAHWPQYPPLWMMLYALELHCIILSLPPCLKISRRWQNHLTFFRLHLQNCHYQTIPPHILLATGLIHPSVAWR
UniProt P41238, whole entry W121Q: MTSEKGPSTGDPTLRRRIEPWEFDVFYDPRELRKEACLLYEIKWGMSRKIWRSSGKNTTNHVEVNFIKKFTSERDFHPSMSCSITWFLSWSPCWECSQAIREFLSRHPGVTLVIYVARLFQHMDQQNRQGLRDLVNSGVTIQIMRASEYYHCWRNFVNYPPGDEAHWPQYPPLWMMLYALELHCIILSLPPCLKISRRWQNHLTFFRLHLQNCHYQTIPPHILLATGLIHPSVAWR
UniProt P41238, whole entry W121A: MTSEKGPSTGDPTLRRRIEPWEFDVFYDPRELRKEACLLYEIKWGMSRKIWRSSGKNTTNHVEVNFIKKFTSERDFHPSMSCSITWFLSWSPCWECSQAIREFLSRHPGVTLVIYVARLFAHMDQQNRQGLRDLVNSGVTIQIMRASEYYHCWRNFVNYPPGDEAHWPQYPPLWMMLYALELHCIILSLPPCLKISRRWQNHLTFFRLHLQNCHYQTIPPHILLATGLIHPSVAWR
UniProt P41238, whole entry F120A: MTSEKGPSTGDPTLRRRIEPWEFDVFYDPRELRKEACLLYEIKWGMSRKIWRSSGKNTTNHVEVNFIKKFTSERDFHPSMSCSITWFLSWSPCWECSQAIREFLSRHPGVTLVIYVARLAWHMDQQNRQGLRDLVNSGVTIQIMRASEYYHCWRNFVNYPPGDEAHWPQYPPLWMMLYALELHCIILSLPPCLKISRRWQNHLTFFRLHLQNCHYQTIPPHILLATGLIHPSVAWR

What was measured:
Assay in all cases: EMSA
[1] = target: MBP-APO1 mXT (dimeric form) M46A,R48S,I80T,W121A,L173A,W199A,F205A,del1-14 (human) (UniProt P41238); conditions: slightly stronger than WT, Kd only plotted; 50 nM nucleic acid, 20 mM HEPES, 50 mM NaCl, 5 mM DTT, 10% glycerol (0.4 U RNase inhibitor for RNA), pH not stated for EMSA (HEPES pH 7.5 in protein buffers); recombinant protein; residues 15-236; protein details: MBP (N-terminal fusion); label: 5' FAM; single-stranded DNA
[2] = target: MBP-APO1 W121H (aggregated form) (human) (UniProt P41238); conditions: range given for four mutants on DNA and RNA, 50 nM nucleic acid, 20 mM HEPES, 50 mM NaCl, 5 mM DTT, 10% glycerol (0.4 U RNase inhibitor for RNA), pH not stated for EMSA (HEPES pH 7.5 in protein buffers), recombinant protein, residues 1-236, protein details: MBP (N-terminal fusion)
[3] = target: MBP-APO1 W121Q (aggregated form) (human) (UniProt P41238); conditions: range given for four mutants on DNA and RNA, 50 nM nucleic acid, 20 mM HEPES, 50 mM NaCl, 5 mM DTT, 10% glycerol (0.4 U RNase inhibitor for RNA), pH not stated for EMSA (HEPES pH 7.5 in protein buffers), recombinant protein, residues 1-236, protein details: MBP (N-terminal fusion)
[4] = target: MBP-APO1 W121A (aggregated form) (human) (UniProt P41238); conditions: range given for four mutants on DNA and RNA, 50 nM nucleic acid, 20 mM HEPES, 50 mM NaCl, 5 mM DTT, 10% glycerol (0.4 U RNase inhibitor for RNA), pH not stated for EMSA (HEPES pH 7.5 in protein buffers), recombinant protein, residues 1-236, protein details: MBP (N-terminal fusion)
[5] = target: MBP-APO1 mXT (aggregated form) M46A,R48S,I80T,W121A,L173A,W199A,F205A,del1-14 (human) (UniProt P41238); conditions: slightly stronger than WT, Kd only plotted; 50 nM nucleic acid, 20 mM HEPES, 50 mM NaCl, 5 mM DTT, 10% glycerol (0.4 U RNase inhibitor for RNA), pH not stated for EMSA (HEPES pH 7.5 in protein buffers); recombinant protein; residues 15-236; protein details: MBP (N-terminal fusion); label: 5' FAM; single-stranded DNA
[6] = target: MBP-APO1 F120A (aggregated form) (human) (UniProt P41238); conditions: range given for four mutants on DNA and RNA, 50 nM nucleic acid, 20 mM HEPES, 50 mM NaCl, 5 mM DTT, 10% glycerol (0.4 U RNase inhibitor for RNA), pH not stated for EMSA (HEPES pH 7.5 in protein buffers), recombinant protein, residues 1-236, protein details: MBP (N-terminal fusion)
[7] = target: MBP-APO1 WT (aggregated form) (human) (UniProt P41238); conditions: no A1CF; 50 nM nucleic acid, 20 mM HEPES, 50 mM NaCl, 5 mM DTT, 10% glycerol (0.4 U RNase inhibitor for RNA), pH not stated for EMSA (HEPES pH 7.5 in protein buffers); recombinant protein; residues 1-236; protein details: MBP (N-terminal fusion, pMAL-C5X)
[8] = label: 5' FAM, single-stranded DNA

Sequence	binding result [1]	binding result [2, 8]	binding result [3, 8]	binding result [4, 8]	binding result [5]	binding result [6, 8]	binding result ([2]; no A1CF)	binding result ([3]; no A1CF)	binding result ([4]; no A1CF)	Kd [7]	binding result ([6]; no A1CF)
ATTATTATTATTCAAATTTATTTATTTATTTATGGTGTTTGGTGTGGTTG [FAM-50 ssDNA]	binds	binds	binds	binds	binds	binds					
GGAUAUAUGAUACAAUUUGAUCAGUAUAUUAAAGAUAGUUAUGAUUUACAUGAUU [APOB RNA 55 nt]							binds	binds	binds	230 nM	binds
